Test results as given in PMC9317960 (Biochemical Journal, 2022).
These are yes or no findings as the source states them, for the method shown.

Chains of the proteins cited; added tags and fusions are not shown. Residues count along the entry.
Human Scribble (SCRIB) PDZ1 domain (728-815) (Q14160, residues 728-815): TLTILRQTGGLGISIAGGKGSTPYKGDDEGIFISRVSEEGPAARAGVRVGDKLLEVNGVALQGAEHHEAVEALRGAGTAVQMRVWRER
Human Scribble (SCRIB) PDZ2 domain (860-950) (Q14160, residues 860-950): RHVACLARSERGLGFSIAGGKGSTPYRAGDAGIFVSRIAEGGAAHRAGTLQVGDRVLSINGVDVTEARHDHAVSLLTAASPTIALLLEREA
Human Scribble (SCRIB) PDZ4 domain (1099-1203) (Q14160, residues 1099-1203): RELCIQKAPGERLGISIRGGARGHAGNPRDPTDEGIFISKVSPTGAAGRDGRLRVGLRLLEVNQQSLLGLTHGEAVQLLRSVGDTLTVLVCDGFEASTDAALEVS

Columns and labels:
Experiment in all cases: ITC; both purified
[1] = molecular target: Human Scribble (SCRIB) PDZ1 domain (728-815) (human) (UniProt Q14160)
[2] = molecular target: Human Scribble (SCRIB) PDZ4 domain (1099-1203) (human) (UniProt Q14160)
[3] = molecular target: Human Scribble (SCRIB) PDZ2 domain (860-950) (human) (UniProt Q14160)

Measured: binding

B1: TBEV NS5_CTN peptide (C-terminal PBM of NS5) (peptide)
peptide: LRLESSII
no binding: all assays above
